Measured values: the supplement of paper PMC10849652
The other results are listed elsewhere or left out. Residues, ends and D or L forms follow the SMILES beside them. *: point of attachment. Cbz = O=C(OCc1ccccc1)*

Protein sequences, listed by entry. Tags and fused reporters are not part of them. Lines headed by an entry give the natural chain unless they say otherwise; changes in a name come on top.
UniProt O75061: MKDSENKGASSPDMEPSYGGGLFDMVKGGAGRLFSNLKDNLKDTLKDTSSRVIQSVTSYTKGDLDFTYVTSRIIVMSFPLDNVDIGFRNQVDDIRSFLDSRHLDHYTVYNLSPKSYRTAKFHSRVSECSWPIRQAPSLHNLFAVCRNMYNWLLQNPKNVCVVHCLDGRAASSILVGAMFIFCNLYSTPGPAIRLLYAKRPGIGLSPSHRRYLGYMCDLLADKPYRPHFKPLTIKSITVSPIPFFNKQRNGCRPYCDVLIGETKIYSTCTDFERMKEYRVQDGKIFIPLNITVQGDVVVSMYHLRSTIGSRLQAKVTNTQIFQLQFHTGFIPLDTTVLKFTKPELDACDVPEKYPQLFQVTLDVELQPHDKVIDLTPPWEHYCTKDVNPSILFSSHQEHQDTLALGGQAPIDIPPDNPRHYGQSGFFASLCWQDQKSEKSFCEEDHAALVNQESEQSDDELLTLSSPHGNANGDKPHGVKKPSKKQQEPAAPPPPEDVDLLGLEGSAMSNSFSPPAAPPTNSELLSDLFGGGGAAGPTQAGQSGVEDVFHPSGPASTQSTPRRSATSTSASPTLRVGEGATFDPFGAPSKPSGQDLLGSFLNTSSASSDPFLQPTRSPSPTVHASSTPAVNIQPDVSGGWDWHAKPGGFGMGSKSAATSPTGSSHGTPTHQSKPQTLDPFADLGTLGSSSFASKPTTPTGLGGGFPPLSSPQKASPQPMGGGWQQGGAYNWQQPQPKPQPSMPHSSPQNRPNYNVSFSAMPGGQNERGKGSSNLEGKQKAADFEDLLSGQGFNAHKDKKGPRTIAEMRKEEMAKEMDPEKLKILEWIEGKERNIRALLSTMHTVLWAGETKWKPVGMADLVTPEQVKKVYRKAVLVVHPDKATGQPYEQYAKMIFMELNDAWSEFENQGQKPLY
UniProt Q9BQC3: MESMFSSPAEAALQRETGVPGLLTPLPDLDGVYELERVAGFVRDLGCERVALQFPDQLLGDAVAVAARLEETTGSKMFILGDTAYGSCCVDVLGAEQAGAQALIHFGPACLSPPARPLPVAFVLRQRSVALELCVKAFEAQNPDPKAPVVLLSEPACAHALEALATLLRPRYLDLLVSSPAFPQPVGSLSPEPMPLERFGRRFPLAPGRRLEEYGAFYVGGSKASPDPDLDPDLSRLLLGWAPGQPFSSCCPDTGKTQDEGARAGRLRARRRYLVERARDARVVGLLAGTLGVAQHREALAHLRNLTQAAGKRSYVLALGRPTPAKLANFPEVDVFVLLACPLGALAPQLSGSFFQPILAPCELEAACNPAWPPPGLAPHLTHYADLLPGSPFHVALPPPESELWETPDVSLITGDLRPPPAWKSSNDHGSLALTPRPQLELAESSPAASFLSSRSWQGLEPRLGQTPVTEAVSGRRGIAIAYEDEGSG
UniProt O00429, whole entry, looked up: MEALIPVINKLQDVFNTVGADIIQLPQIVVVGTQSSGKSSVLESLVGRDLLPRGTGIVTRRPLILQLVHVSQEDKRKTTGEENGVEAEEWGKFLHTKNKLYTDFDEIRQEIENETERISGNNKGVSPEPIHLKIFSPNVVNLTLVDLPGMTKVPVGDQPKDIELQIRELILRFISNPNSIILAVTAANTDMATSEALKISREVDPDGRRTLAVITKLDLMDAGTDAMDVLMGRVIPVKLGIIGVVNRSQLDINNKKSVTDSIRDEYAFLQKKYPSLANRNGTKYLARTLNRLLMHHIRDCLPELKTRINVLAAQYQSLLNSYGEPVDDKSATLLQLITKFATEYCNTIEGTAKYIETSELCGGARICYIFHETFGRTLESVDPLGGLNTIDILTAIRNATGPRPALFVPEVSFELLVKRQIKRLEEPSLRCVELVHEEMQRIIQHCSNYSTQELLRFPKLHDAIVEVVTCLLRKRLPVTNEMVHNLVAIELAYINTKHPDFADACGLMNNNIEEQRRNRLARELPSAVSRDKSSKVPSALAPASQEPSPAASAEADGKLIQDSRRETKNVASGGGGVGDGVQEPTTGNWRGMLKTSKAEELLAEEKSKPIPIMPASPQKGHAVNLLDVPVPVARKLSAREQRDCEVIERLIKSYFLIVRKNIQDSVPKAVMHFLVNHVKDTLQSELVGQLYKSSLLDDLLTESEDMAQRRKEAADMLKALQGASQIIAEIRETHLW
UniProt P42126: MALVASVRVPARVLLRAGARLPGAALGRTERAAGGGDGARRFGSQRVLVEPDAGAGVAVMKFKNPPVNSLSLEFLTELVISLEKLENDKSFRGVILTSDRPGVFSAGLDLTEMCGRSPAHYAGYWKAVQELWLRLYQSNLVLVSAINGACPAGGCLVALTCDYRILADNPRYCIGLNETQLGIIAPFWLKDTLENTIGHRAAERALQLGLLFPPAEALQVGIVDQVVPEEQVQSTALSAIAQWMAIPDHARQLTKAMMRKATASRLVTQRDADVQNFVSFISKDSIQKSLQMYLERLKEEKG
UniProt O75165, whole entry, looked up: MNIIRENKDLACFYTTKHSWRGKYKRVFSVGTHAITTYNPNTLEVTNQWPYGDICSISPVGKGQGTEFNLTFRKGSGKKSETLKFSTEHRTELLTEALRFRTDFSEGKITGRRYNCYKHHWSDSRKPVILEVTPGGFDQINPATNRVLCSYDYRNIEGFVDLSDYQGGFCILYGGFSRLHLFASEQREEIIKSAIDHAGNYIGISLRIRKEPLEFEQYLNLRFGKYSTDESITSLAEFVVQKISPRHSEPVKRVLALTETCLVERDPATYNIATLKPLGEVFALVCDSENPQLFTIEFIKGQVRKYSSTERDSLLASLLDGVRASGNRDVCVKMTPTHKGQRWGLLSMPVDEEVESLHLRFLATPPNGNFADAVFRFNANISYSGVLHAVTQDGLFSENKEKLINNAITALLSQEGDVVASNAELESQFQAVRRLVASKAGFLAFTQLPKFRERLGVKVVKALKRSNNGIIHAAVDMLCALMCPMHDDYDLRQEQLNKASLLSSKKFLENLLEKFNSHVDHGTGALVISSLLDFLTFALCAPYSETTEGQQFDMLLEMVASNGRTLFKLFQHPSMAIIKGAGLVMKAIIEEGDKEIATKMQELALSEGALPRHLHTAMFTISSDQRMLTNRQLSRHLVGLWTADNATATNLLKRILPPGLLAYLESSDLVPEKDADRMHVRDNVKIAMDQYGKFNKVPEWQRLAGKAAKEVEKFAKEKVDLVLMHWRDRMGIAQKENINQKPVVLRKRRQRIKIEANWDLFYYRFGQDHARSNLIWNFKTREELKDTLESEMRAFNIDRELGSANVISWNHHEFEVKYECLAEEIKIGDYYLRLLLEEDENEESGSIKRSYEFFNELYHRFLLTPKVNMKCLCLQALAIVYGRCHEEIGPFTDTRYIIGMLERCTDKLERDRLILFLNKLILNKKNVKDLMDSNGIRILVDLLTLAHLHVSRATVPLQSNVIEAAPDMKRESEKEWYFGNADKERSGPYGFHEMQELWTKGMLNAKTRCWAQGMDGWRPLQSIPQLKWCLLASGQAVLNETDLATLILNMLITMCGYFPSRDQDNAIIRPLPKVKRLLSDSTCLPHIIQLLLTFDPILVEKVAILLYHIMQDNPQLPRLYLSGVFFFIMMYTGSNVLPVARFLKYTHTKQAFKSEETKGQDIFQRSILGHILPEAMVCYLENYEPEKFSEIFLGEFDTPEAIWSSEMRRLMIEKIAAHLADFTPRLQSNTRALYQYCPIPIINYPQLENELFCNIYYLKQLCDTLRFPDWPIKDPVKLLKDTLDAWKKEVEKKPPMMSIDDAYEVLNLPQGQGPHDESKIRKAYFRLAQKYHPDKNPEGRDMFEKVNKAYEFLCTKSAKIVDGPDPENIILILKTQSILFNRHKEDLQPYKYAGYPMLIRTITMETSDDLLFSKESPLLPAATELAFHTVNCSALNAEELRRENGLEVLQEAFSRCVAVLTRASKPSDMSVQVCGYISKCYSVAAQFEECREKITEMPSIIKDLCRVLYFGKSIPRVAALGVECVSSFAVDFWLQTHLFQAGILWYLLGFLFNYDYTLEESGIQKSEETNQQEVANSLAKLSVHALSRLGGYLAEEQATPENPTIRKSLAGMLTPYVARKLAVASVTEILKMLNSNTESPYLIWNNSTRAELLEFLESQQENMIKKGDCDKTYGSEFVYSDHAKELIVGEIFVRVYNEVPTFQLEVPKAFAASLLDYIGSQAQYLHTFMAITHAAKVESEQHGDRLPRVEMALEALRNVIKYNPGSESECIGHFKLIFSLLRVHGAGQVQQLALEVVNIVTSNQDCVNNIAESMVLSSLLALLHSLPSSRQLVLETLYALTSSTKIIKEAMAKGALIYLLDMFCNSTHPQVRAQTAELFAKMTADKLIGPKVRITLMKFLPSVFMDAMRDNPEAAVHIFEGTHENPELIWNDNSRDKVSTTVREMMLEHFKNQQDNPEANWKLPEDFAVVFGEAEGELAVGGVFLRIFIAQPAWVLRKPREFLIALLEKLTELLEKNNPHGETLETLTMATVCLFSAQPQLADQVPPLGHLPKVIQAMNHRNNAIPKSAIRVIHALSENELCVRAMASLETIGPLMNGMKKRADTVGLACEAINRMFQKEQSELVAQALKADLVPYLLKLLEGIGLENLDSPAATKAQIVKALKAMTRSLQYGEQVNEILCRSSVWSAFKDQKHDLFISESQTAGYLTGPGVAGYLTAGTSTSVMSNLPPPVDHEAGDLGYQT
UniProt Q16610: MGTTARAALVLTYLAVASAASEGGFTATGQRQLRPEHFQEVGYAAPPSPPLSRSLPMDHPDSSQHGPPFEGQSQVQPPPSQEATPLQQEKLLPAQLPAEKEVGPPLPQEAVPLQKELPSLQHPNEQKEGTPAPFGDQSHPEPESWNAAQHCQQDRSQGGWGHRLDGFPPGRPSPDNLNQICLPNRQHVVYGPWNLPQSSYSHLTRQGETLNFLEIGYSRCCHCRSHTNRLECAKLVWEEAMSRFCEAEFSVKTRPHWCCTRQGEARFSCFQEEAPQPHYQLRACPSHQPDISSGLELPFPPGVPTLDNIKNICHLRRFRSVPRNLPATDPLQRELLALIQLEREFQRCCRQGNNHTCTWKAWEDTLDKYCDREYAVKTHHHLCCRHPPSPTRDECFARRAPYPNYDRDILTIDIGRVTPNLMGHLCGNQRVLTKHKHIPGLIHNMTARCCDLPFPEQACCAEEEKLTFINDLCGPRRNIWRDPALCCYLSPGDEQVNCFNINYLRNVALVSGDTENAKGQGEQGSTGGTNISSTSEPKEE
UniProt Q9Y6G9, whole entry, looked up: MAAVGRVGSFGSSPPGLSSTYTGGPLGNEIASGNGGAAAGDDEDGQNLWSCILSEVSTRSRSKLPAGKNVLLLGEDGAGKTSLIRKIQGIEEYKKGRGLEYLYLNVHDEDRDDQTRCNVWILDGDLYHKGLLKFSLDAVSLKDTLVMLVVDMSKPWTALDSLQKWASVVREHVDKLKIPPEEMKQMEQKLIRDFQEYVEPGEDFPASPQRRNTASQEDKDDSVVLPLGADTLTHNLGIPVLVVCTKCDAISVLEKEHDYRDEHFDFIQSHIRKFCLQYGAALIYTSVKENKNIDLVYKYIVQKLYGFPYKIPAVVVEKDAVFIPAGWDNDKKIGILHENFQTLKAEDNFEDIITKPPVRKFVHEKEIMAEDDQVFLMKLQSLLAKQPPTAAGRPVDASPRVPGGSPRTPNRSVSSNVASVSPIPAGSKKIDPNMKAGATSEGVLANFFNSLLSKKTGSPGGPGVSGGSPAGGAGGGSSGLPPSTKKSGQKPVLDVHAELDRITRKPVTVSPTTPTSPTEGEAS
UniProt O60869: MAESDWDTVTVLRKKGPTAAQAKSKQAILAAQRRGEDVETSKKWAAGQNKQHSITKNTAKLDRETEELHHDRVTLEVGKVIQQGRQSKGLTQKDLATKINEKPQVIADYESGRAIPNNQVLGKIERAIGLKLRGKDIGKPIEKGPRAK
UniProt Q96FJ2, whole entry, looked up: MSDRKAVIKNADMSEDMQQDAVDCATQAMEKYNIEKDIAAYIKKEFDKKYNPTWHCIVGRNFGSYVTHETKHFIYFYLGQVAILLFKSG
UniProt Q01658: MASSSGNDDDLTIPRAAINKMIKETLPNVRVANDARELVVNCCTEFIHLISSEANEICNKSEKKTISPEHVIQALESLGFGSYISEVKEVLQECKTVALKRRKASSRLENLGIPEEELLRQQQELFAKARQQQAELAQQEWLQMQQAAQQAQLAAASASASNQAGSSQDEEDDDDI
UniProt Q92785, whole entry, looked up: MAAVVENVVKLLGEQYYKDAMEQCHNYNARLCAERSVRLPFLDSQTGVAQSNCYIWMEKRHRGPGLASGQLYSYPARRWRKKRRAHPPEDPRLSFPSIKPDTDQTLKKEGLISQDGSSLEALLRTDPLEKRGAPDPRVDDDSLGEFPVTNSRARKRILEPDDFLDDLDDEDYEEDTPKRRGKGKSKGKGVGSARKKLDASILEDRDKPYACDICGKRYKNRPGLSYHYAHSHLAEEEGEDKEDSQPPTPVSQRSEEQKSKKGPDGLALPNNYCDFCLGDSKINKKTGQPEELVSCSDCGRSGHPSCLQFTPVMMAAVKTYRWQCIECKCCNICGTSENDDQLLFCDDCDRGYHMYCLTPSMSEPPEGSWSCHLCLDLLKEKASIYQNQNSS

Assays:
Assay in all cases: log2 fold change, soluble protein after heating vs DMSO (PISA); higher = thermal stabilisation; K562 cells, 10 uM, 30 min; active = over 0.2 and 3.5 SD of the protein, either way, in both replicates (recomputed)
IRAK-1-4 Inhibitor I = compound: C1COCCN1CCN2C3=CC=CC=C3N=C2NC(=O)C4=CC(=CC=C4)[N+](=O)[O-] [IRAK-1-4 Inhibitor I]
Outline: (§1)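 For each measurement, 10 μM compound was applied for 30 min to K562 cells at 2×10^6 cells/mL. Aliquots were heated for 3 min across 48°C-58°C, pooled, and extracted in PBS with 0.5% NP-40 at 4°C; the supernatant after 21,000xg for 90 min was soluble protein. This was quantified by TMTpro 16plex LC-MS/MS with channel sums equalised, and thermal stability was reported relative to control samples from duplicates, on a log2 fold-change scale.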

ibrutinib = compound: C=CC(=O)N1CCC[C@@H](n2nc(-c3ccc(Oc4ccccc4)cc3)c3c(N)ncnc32)C1 [ibrutinib]
Outline: as §1

[1] = compound: CC(=O)c1cnc2ccc(-c3cc(Cl)c(O)c(Cl)c3)nc2c1N[C@H]1CC[C@H](CN(C)C)CC1
Outline: as §1

ralimetinib = compound: CC(C)(C)Cn1c(N)nc2ccc(-c3[nH]c(C(C)(C)C)nc3-c3ccc(F)cc3)nc21 [ralimetinib]
Outline: as §1

[2] = compound: CC(C)(O)CC(=O)NCCn1ccc2ncnc(Nc3ccc(Oc4cccc(C(F)(F)F)c4)c(Cl)c3)c21
Outline: as §1

[3] = compound: CC(C)C1=C2N=C(C=C(N2N=C1)NCC3=CC=CC=C3)NCCCCCCN
Outline: as §1

[4] = compound: CC(C)C[C@@H](C=O)NC(=O)[C@H](CC(C)C)NC(=O)[C@H](CC(C)C)NC(=O)OCc1ccccc1
Outline: as §1

pinometostat = compound: CC(C)N(C[C@H]1O[C@@H](n2cnc3c(N)ncnc32)[C@H](O)[C@@H]1O)[C@H]1C[C@@H](CCc2nc3cc(C(C)(C)C)ccc3[nH]2)C1 [pinometostat]
Outline: as §1

[5] = compound: CC1=C(C(CC(=O)N1)C2=CC=C(C=C2)C(F)(F)F)C(=O)NC3=C(C=C4C(=C3)C=NN4)F
Outline: as §1

[6] = compound: CC1=C(C2=C(C=C1)C(=O)C3=CC=CC=C3N2CCCN)C
Outline: as §1

[7] = compound: CC1=C(C=C(C=C1)NC(=O)C2=CC(=CC=C2)C(C)(C)C#N)NC3=CC4=C(C=C3)N=CN(C4=O)C
Outline: as §1

[8] = compound: CC1=C(C=C(C=C1)NC(=O)C2=CC(=CC=C2)N(C)C)NC(=O)C3=CC=C(C=C3)O
Outline: as §1

[9] = compound: CC1=CC=C(C=C1)SC2=C3C=C(SC3=CN=C2)C(=O)N
Outline: as §1

[10] = compound: CC1=NC(=CC=C1)C2=C(N=C(N2)C(C)(C)C)C3=CC4=NC=CN=C4C=C3
Outline: as §1

Nexturastat A = compound: CCCCN(Cc1ccc(C(=O)NO)cc1)C(=O)Nc1ccccc1 [Nexturastat A]
Outline: as §1

vemurafenib = compound: CCCS(=O)(=O)Nc1ccc(F)c(C(=O)c2c[nH]c3ncc(-c4ccc(Cl)cc4)cc23)c1F [vemurafenib]
Outline: as §1

[11] = compound: CCCS(=O)(=O)Nc1ccc(F)c(C(=O)c2c[nH]c3ncc(Cl)cc23)c1F
Outline: as §1

[12] = compound: CCCc1cc(C)[nH]c(=O)c1CNC(=O)c1cc(-c2ccnc(N3CCN(C)CC3)c2)cc2c1cnn2C(C)C
Outline: as §1

givinostat = compound: CCN(CC)Cc1ccc2cc(COC(=O)Nc3ccc(C(=O)NO)cc3)ccc2c1 [givinostat]
Outline: as §1

barasertib = compound: CCN(CCCOc1ccc2c(Nc3cc(CC(=O)Nc4cccc(F)c4)[nH]n3)ncnc2c1)CCOP(=O)(O)O [barasertib]
Outline: as §1

Measured: log2 fold change

DNAJC6 isoform 2 (UniProt O75061)
inactive: IRAK-1-4 Inhibitor I 0.03 | ibrutinib -0.076 | [1] -0.139 | ralimetinib -0.011 | [2] 0.028 | [3] 0.049 | [4] 0.058 | pinometostat -0.017 | [5] 0.042 | [6] 0.029 | [7] 0.021 | [8] 0.004 | [9] 0 | [10] 0.017 | Nexturastat A -0.028 | vemurafenib 0.026 | [11] 0.079 | [12] -0.021 | givinostat -0.021 | barasertib 0.167

DPH2 (UniProt Q9BQC3)
inactive: IRAK-1-4 Inhibitor I 0.006 | ibrutinib -0.031 | [1] -0.082 | ralimetinib 0.038 | [2] -0.027 | [3] 0.04 | [4] 0.045 | pinometostat 0.011 | [5] 0.064 | [6] 0.01 | [7] -0.001 | [8] 0.031 | [9] 0.008 | [10] 0.037 | Nexturastat A -0.059 | vemurafenib -0.019 | [11] -0.049 | [12] 0.03 | givinostat -0.207 | barasertib 0.057

DNM1L isoform 6 (UniProt O00429)
inactive: IRAK-1-4 Inhibitor I 0.042 | ibrutinib -0.017 | [1] -0.001 | ralimetinib -0.037 | [2] -0.028 | [3] -0.034 | [4] -0.01 | pinometostat -0.001 | [5] 0 | [6] 0.092 | [7] -0.022 | [8] 0.005 | [9] 0.041 | [10] 0.015 | Nexturastat A -0.045 | vemurafenib -0.022 | [11] 0.043 | [12] -0.018 | givinostat 0.023 | barasertib 0.029

ECI1 (UniProt P42126)
inactive: IRAK-1-4 Inhibitor I 0.007 | ibrutinib 0.035 | [1] -0.023 | ralimetinib -0.064 | [2] 0.002 | [3] 0.026 | [4] -0.025 | pinometostat -0.043 | [5] 0.023 | [6] 0.097 | [7] 0 | [8] 0.024 | [9] 0.008 | [10] 0.005 | Nexturastat A -0.064 | vemurafenib -0.027 | [11] 0.001 | [12] -0.038 | givinostat -0.074 | barasertib -0.004

DPY30 (UniProt Q9C005)
inactive: IRAK-1-4 Inhibitor I 0.09 | ibrutinib 0 | [1] -0.001 | ralimetinib 0.076 | [2] -0.073 | [3] 0.242 | [4] -0.341 | pinometostat -0.115 | [5] 0.009 | [6] -0.021 | [7] -0.042 | [8] -0.029 | [9] -0.1 | [10] 0.36 | Nexturastat A 0.138 | vemurafenib 0.348 | [11] 0.15 | [12] 0.01 | givinostat -0.036 | barasertib -0.023

DNAJC13 (UniProt O75165)
inactive: IRAK-1-4 Inhibitor I -0.042 | ibrutinib 0.005 | [1] 0 | ralimetinib 0.096 | [2] -0.023 | [3] 0.03 | [4] 0.024 | pinometostat 0.188 | [5] 0.038 | [6] 0.039 | [7] 0.009 | [8] 0.005 | [9] -0.032 | [10] 0.044 | Nexturastat A 0.033 | vemurafenib -0.086 | [11] 0.037 | [12] 0.038 | givinostat 0.031 | barasertib 0.06

ECHS1 (UniProt P30084)
inactive: IRAK-1-4 Inhibitor I 0.014 | ibrutinib -0.027 | [1] 0.013 | ralimetinib -0.003 | [2] 0.005 | [3] 0.06 | [4] -0.015 | pinometostat -0.045 | [5] -0.067 | [6] 0.034 | [7] -0.016 | [8] -0.018 | [9] 0.01 | [10] 0.053 | Nexturastat A -0.073 | vemurafenib 0.089 | [11] 0.077 | [12] 0.024 | givinostat -0.027 | barasertib -0.002

ECM1 isoform 4 (UniProt Q16610)
inactive: IRAK-1-4 Inhibitor I -0.047 | ibrutinib -0.032 | [1] -0.03 | ralimetinib 0.027 | [2] -0.036 | [3] 0.027 | [4] 0.037 | pinometostat 0.023 | [5] 0.019 | [6] -0.033 | [7] 0.027 | [8] -0.018 | [9] -0.029 | [10] 0.021 | Nexturastat A -0.016 | vemurafenib 0.061 | [11] -0.075 | [12] 0.015 | givinostat -0.014 | barasertib -0.018

DYNC1LI1 (UniProt Q9Y6G9)
inactive: IRAK-1-4 Inhibitor I -0.017 | ibrutinib -0.05 | [1] -0.005 | ralimetinib -0.013 | [2] -0.045 | [3] -0.043 | [4] 0.024 | pinometostat 0.043 | [5] -0.017 | [6] 0.014 | [7] 0.054 | [8] -0.023 | [9] -0.02 | [10] -0.012 | Nexturastat A 0.02 | vemurafenib -0.001 | [11] 0.009 | [12] 0.041 | givinostat -0.018 | barasertib -0.001

DPH6 (UniProt Q7L8W6)
inactive: IRAK-1-4 Inhibitor I 0.034 | ibrutinib -0.108 | [1] -0.013 | ralimetinib 0.019 | [2] -0.086 | [3] -0.161 | [4] -0.038 | pinometostat 0.008 | [5] -0.041 | [6] -0.088 | [7] 0.012 | [8] 0.003 | [9] 0.001 | [10] 0.039 | Nexturastat A -0.031 | vemurafenib 0.094 | [11] 0.037 | [12] 0.055 | givinostat 0.006 | barasertib 0.044

DST (UniProt Q03001)
inactive: IRAK-1-4 Inhibitor I -0.016 | ibrutinib 0.281 | [1] -0.01 | ralimetinib 0.185 | [2] 0.05 | [3] 0.011 | [4] 0.062 | pinometostat 0.123 | [5] 0.047 | [6] 0.011 | [7] -0.142 | [8] 0.02 | [9] -0.048 | [10] -0.097 | Nexturastat A -0.007 | vemurafenib -0.043 | [11] -0.052 | [12] -0.378 | givinostat 0.207 | barasertib 0.025

EDF1 (UniProt O60869)
inactive: IRAK-1-4 Inhibitor I 0.009 | ibrutinib 0.001 | [1] 0.029 | ralimetinib -0.09 | [2] 0.084 | [3] 0.066 | [4] -0.035 | pinometostat -0.072 | [5] -0.014 | [6] 0.003 | [7] 0.002 | [8] -0.018 | [9] 0.002 | [10] 0.039 | Nexturastat A -0.076 | vemurafenib -0.01 | [11] -0.049 | [12] 0.096 | givinostat 0.002 | barasertib 0.012

DYNLL2 (UniProt Q96FJ2)
inactive: IRAK-1-4 Inhibitor I -0.017 | ibrutinib 0.034 | [1] -0.003 | ralimetinib -0.017 | [2] -0.027 | [3] -0.007 | [4] -0.028 | pinometostat -0.075 | [5] -0.116 | [6] 0.184 | [7] -0.066 | [8] -0.098 | [9] 0.017 | [10] 0.041 | Nexturastat A 0.051 | vemurafenib 0.008 | [11] 0.001 | [12] 0.035 | givinostat -0.004 | barasertib 0.048

DR1 (UniProt Q01658)
inactive: IRAK-1-4 Inhibitor I -0.005 | ibrutinib 0.01 | [1] 0.019 | ralimetinib -0.021 | [2] -0.106 | [3] 0.041 | [4] -0.024 | pinometostat -0.007 | [5] 0.152 | [6] -0.011 | [7] -0.009 | [8] -0.005 | [9] 0.052 | [10] 0.027 | Nexturastat A -0.062 | vemurafenib -0.045 | [11] -0.085 | [12] -0.087 | givinostat -0.065 | barasertib -0.018

DUSP3 (UniProt P51452)
inactive: IRAK-1-4 Inhibitor I 0.021 | ibrutinib -0.088 | [1] -0.057 | ralimetinib -0.014 | [2] 0.029 | [3] 0.084 | [4] 0.022 | pinometostat 0.056 | [5] -0.109 | [6] 0.056 | [7] 0.087 | [8] -0.023 | [9] -0.027 | [10] 0.007 | Nexturastat A -0.053 | vemurafenib 0.042 | [11] 0.022 | [12] -0.022 | givinostat 0.037 | barasertib 0.098

Two entries drawn at random from those above, as already listed:
DST (UniProt Q03001)
inactive: IRAK-1-4 Inhibitor I -0.016 | ibrutinib 0.281 | [1] -0.01 | ralimetinib 0.185 | [2] 0.05 | [3] 0.011 | [4] 0.062 | pinometostat 0.123 | [5] 0.047 | [6] 0.011 | [7] -0.142 | [8] 0.02 | [9] -0.048 | [10] -0.097 | Nexturastat A -0.007 | vemurafenib -0.043 | [11] -0.052 | [12] -0.378 | givinostat 0.207 | barasertib 0.025

DR1 (UniProt Q01658)
inactive: IRAK-1-4 Inhibitor I -0.005 | ibrutinib 0.01 | [1] 0.019 | ralimetinib -0.021 | [2] -0.106 | [3] 0.041 | [4] -0.024 | pinometostat -0.007 | [5] 0.152 | [6] -0.011 | [7] -0.009 | [8] -0.005 | [9] 0.052 | [10] 0.027 | Nexturastat A -0.062 | vemurafenib -0.045 | [11] -0.085 | [12] -0.087 | givinostat -0.065 | barasertib -0.018

(next part)

DPF2 (UniProt Q92785)
inactive: IRAK-1-4 Inhibitor I -0.041 | ibrutinib -0.013 | [1] -0.052 | ralimetinib 0.089 | [2] 0.02 | [3] 0.024 | [4] 0.04 | pinometostat -0.075 | [5] 0.061 | [6] 0.013 | [7] -0.093 | [8] 0.033 | [9] -0.003 | [10] 0.043 | Nexturastat A 0.1 | vemurafenib -0.035 | [11] -0.006 | [12] 0.032 | givinostat 0.042 | barasertib -0.015
